The values below come from publication PMC9319256, “Human Enzyme PADI4 Binds to the Nuclear Carrier Importin α3” (Cells, 2022).

Test [1] deals with NLS2-PADI4 peptide (human). Description: SEC; Superdex 75 10/30 HR; 20 mM Tris pH 7.6, 250 mM NaCl; 50-400 µM NLS1-PADI4, 200-400 µM NLS2-PADI4; both purified. (In gel filtration, larger molecules generally elute earlier.)
Test [2] concerns the target NLS2-PADI4 peptide (human). Description: translational diffusion NMR (DOSY); 100 µM peptide; 100 mM sodium phosphate, pH 7.0; 10 °C; dioxane as reference; both purified.

No constants are given. Whether binding was seen depends on the method and setting.

YKLFQEQQNEGHGEALLFEGIKKKKQQKI (acetylated N-terminus; amidated C-terminus) [NLS2-PADI4 peptide]: the binding entry in test [1] was “no binding (tested: 200–400 µM)”; in test [2], “no binding (tested: 100 µM)”.
